{
  "source": "patent US20260174770A1",
  "about": "“COMBINATION THERAPY FOR TREATING CANCER” (SCORPION THERAPEUTICS, INC., priority 2022, published 2026)",
  "key": {"[1]": {"system": "PIK3CA-mutant, ER+/HER2+ PDX tumor", "assay": "PDX model, combination with palbociclib", "assay_type": "in vivo", "details": "Compound 1 100 mg/kg PO QD; palbociclib 50 mg/kg QD"}, "[2]": {"system": "ST1056 (H1047R) PDX tumors", "assay_type": "in vivo", "details": "ST1056 ER+HER2− PDX, combination study, treatment up to 94 days", "text": "ST1056 tumor cell lines are biopsied and engrafted on to athymic nude, immunodeficient mice."}, "[3]": {"system": "AurB kinase, phospho-H3 (Ser10)", "assay": "Cellular AurB inhibition, phospho-H3 (Ser10)", "assay_type": "cell-based", "details": "1-hour post treatment; Compound 1 up to 10 μM"}, "WT PI3Kα": {"system": "WT PI3Kα", "assay": "Surface plasmon resonance (SPR), WT PI3Kα", "assay_type": "binding", "details": "fold lower affinity for WT"}},
  "note": "At least one compound was matched to its structure with a doubt left.",
  "data": [
    {"smiles": "CC(=O)c1c(C)c2cnc(Nc3ccc(N4CCNCC4)cn3)nc2n(C2CCCC2)c1=O", "note": "[Palbociclib, palbociclib, reference compound]", "values": [
      {"measurement": "tumor growth / tumor volume", "setting": "[1]", "value": "Strong tumor growth inhibition and stasis"},
      {"measurement": "tumor growth", "setting": "[2]", "value": "grew rapidly"}
    ]},
    {"smiles": "CCN(CCCOc1ccc2c(Nc3cc(CC(=O)Nc4cccc(F)c4)n[nH]3)ncnc2c1)CCOP(=O)(O)O", "note": "[barasertib, reference compound]", "values": [
      {"measurement": "inhibition of AurB / phospho-H3 (Ser10) in cells", "setting": "[3]", "value": "dose-dependent inhibition of phospho-H3 (Ser10)"}
    ]},
    {"smiles": "C[C@H](Nc1ncnc2nc[nH]c12)c1cc2cccc(Cl)c2c(=O)n1-c1ccccc1", "note": "[duvelisib]", "values": [
      {"measurement": "binding affinity for WT PI3Kα relative to H1047R mutant", "setting": "WT PI3Kα", "value": "approximately equal binding affinity for mutant and WT PI3Kα"}
    ]}
  ]
}
